In publication PMC3414442:

Tests used:
[1] = target: p53 (nuclear extract of SN38-treated MCF10A) (UniProt P04637); assay: EMSA; details: EMSA: 20 fmol biotin probe, 9 ug nuclear extract or 0.15 uM p53, 2 pmol poly(dI-dC), 2.5% glycerol, 0.05% NP40, 1.5 mM MgCl2, 1 mM EDTA (LightShift kit), 4% native gel, protein in an extract, label: 3' biotin on both strands
[2] = target: p53 (nuclear extract of SN38-treated MCF10A/OD) (UniProt P04637); assay: EMSA; details: SN38 10 ng/ml 24 h, dimer bands only, no tetramer; EMSA: 20 fmol biotin probe, 9 ug nuclear extract or 0.15 uM p53, 2 pmol poly(dI-dC), 2.5% glycerol, 0.05% NP40, 1.5 mM MgCl2, 1 mM EDTA (LightShift kit); 4% native gel; protein in an extract; label: 3' biotin on both strands

“AAACAAACAAAACAATTGGCCTTGGGAAACTGGACAATCTTG (double strand) [cyclin B promoter head-to-tail p53 element probe]”: binds ([1]; SN38 10 ng/ml 24 h, bands of tetramer and dimer size, lost with 200-fold unlabeled probe); binds more weakly ([1]; untreated MCF10A extract (no SN38), low p53 level, significantly reduced bands); binds [2].

The exact form of at least one protein or probe is not confirmed. At least one result comes from cells or an extract, where the contact may be indirect. For part of these data: The comparison behind a weaker result is the experiment's own reference, which may not be listed here.
